Assay [1] has as its target T1, nGFP-AtRTE1 (Aequorea coerulescens; Arabidopsis) (UniProt F4ITL6).
T1 sequence (looked up): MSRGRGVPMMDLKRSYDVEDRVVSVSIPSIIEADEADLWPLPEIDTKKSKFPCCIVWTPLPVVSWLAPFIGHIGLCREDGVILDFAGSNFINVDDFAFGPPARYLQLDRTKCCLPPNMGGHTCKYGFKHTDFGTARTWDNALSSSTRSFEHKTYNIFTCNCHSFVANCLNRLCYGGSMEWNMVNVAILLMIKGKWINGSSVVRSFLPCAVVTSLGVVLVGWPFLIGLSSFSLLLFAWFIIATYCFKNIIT
Kind of assay: BiFC in leaves of Arabidopsis F1 plants, positive control.

Protein sequences, listed by entry. Tags and fused reporters are not part of them.
UniProt Q9ZWT2: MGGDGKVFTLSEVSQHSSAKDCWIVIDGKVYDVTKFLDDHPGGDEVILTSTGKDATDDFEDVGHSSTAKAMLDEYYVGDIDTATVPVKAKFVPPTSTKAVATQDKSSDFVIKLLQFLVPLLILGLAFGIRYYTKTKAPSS

The target in the next assay is T2, AtRTE1-Cub-PLV (Arabidopsis, UniProt F4ITL6 1-250).
T2 construct: Bait of the mating-based split-ubiquitin yeast two-hybrid system; also called AtRTE1 bait construct; not shown: C-terminal half of ubiquitin (Cub); synthetic transcription factor PLV (protease A-LexA-VP16)
T2 sequence (looked up): T1 sequence (looked up)
Nature of the assay: yeast split-ubiquitin two-hybrid. The protocol:
(B) β-Galactosidase assay for yeast diploid cells expressing AtRTE1-Cub-PLV and various ARGOS-NubG fusion proteins. Yeast cells were cultured in SC-Leu-Trp liquid medium. The β-Galactosidase (β-Gal) activity assay uses […] as a substrate. (C) Growth of yeast diploid cells from the mating of haploid strains containing ARGOS-NubG constructs and negative control […] construct. The plates were incubated at 28° C. for 4 days. (D) Liquid β-Galactosidase assay for yeast diploid cells expressing negative control AtCHX20-Cub-PLV and various ARGOS-NubG fusion proteins.
(A) Growth of yeast diploid cells on SC dropout media to show protein-protein interaction of ZmRTL4 with Arabidopsis and maize ARGOS. The SC-Leu-Trp and SC-Leu-Trp-His-Ade media contain 134 and 375 μM Met, respectively. The plates were incubated at 28° C. for 4 days. (B) β-Galactosidase assay for yeast diploid cells expressing ZmRTE4-Cub-PLV and various ARGOS-NubG fusion proteins. (C) Growth of yeast diploid cells on SC dropout media to show protein-protein interaction of ZmRTL2 with Arabidopsis and maize ARGOS. The SC-Leu-Trp and SC-Leu-Trp-His-Ade media contain 134 μM Met. The plates were incubated at 28° C. for 5 days. (D) β-Galactosidase assay for yeast diploid cells expressing ZmRTE2-Cub-PLV and various ARGOS-NubG fusion proteins. […]

In the next assay the target is T3, ZmRTL4-Cub-PLV (maize).
T3 sequence: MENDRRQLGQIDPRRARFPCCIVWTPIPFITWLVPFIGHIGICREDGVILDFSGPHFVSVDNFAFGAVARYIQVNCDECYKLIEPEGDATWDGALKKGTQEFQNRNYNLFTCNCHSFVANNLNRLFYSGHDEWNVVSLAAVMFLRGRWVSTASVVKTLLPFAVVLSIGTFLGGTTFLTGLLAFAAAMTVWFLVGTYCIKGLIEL
Kind of assay: yeast split-ubiquitin two-hybrid.

Results are given in words; binding and its absence hold for the method and conditions named. Some entries that bind do so weakly or less than the wild type. For part of these data: Tags and fused reporters may be left off the sequences shown.

With cGFP-AtCb5D (from UniProt Q9ZWT2 1-140), the binding result in assay [1] was “binds”.

B1: AtARGOS-NubG (protein, UniProt Q6NMD6 1-130, looked up, not shown: large carriers)
chain: MIREISNLQKDIINIQDSYSNNRVMDVGRNNRKNMSFRSSPEKSKQELRRSFSAQKRMMIPANYFSLESLFLLVGLTASLLILPLVLPPLPPPPFMLLLVPIGIMVLLVVLAFMPSSHSNANTDVTCNFM
For the molecule B1, the binding result with AtRTE1-Cub-PLV and with ZmRTL4-Cub-PLV (maize) was “binds” throughout.

The record behind these values is patent publication US20170247716A1 (PIONEER HI BRED INTERNATIONAL, published 2017).
